{"source": "paper PMC5542435", "key": {"[1]": {"target": "T1, FliP-3×FLAG (chromosomally encoded, expressed from the native fliP locus) (S. enterica serovar Typhimurium LT2) (UniProt P54700)", "T1 sequence": "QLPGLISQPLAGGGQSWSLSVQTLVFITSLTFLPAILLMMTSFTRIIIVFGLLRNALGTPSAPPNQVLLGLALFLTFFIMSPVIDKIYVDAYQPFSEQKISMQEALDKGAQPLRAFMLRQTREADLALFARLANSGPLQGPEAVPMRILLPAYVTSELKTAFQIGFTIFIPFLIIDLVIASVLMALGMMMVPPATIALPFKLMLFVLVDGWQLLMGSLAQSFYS", "assay": "affinity purification with mass spectrometry; FLAG pull down of chromosomal FliP-3×FLAG from crude membranes of a rod− (ΔflgBC) strain, 0.5% DDM, anti-FLAG M2 affinity gel 4 h at 4°C in PBS with 0.1% DDM, eluted with FLAG peptide; BN-PAGE separation and LC-MS/MS of bands"}, "[2]": {"target": "T2, FliP-3×FLAG (chromosomally encoded, expressed from the native fliP locus) (S. enterica serovar Typhimurium LT2), P54700", "T2 chain": "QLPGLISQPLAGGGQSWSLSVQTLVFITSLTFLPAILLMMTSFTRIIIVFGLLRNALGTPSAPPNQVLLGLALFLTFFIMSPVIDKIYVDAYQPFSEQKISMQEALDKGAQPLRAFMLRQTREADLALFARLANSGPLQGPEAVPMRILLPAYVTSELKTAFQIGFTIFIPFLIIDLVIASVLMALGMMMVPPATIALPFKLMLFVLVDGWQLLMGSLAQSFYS", "assay": "affinity purification with mass spectrometry; FLAG pull down of chromosomal FliP-3×FLAG from crude membranes of a rod− (ΔflgBC) strain, 0.5% DDM, anti-FLAG M2 affinity gel 4 h at 4°C in PBS with 0.1% DDM, eluted with FLAG peptide; BN-PAGE separation and LC-MS/MS of bands", "conditions": "remark: other sources report otherwise"}}, "note": "These are yes or no findings as the source states them, for the method shown. Binding seen in cells or lysates may run through a third protein. These calls come from enrichment with a bait or labelling near it, and not all partners need be listed. Tags and fused reporters may be left off the sequences shown."}
{"molecule": "FliO (untagged, endogenous in S. Typhimurium) (from UniProt A0A2X4T7I8)", "values": [{"measurement": "binding", "setting": "[1]", "result": "binds"}]}
{"molecule": "FliG (endogenous in S. Typhimurium), P0A1J9 1-331 (protein) MSNLSGTDKSVILLMTIGEDRAAEVFKHLSTREVQALSTAMANVRQISNKQLTDVLSEFEQEAEQFAALNINANEYLRSVLVKALGEERASSLLEDILETRDTTSGIETLNFMEPQSAADLIRDEHPQIIATILVHLKRSQAADILALFDERLRHDVMLRIATFGGVQPAALAELTEVLNGLLDGQNLKRSKMGGVRTAAEIINLMKTQQEEAVITAVREFDGELAQKIIDEMFLFENLVDVDDRSIQRLLQEVDSESLLIALKGAEPPLREKFLRNMSQRAADILRDDLANRGPVRLSQVENEQKAILLIVRRLAETGEMVIGSGEDTYV", "values": [{"measurement": "binding", "setting": "[2]", "result": "binds"}]}
{"molecule": "FliR (untagged, endogenous in S. Typhimurium) (protein, UniProt P54702 1-264) MIQVTSEQWLYWLHLYFWPLLRVLALISTAPILSERAIPKRVKLGLGIMITLVIAPSLPANDTPLFSIAALWLAMQQILIGIALGFTMQFAFAAVRTAGEFIGLQMGLSFATFVDPGSHLNMPVLARIMDMLAMLLFLTFNGHLWLISLLVDTFHTLPIGSNPVNSNAFMALARAGGLIFLNGLMLALPVITLLLTLNLALGLLNRMAPQLSIFVIGFPLTLTVGIMLMAALMPLIAPFCEHLFSEIFNLLADIVSEMPINNNP", "values": [{"measurement": "binding", "setting": "[1]", "result": "binds"}]}
